Laboratory results reported in patent publication US20170049739A1, “PROSTACYCLIN COMPOUNDS, COMPOSITIONS AND METHODS OF USE THEREOF” (INSMED INCORPORATED, priority 2013, published 2017).
Some entries share one result that the patent states for a list of compounds. For at least one compound, name, drawing or mass did not settle the structure.

Experiment: Particle size characterization of treprostinil compositions (QELS)
Type: physicochemical
Settings: particles of compositions comprising the alkyl ester (FIG. 2)

Compound	polydispersity (% PD)
CCCCC[C@H](O)CC[C@@H]1[C@H]2Cc3cccc(OCC(=O)OCCC)c3C[C@H]2C[C@H]1O [C3-TR]	greater than 15 % PD
CCCCCCCCCCCCCCCCCCOC(=O)COc1cccc2c1C[C@H]1C[C@@H](O)[C@H](CC[C@@H](O)CCCCC)[C@H]1C2 [C18-TR]	greater than 15 % PD
